According to paper PMC6327505, “Adaption to glucose limitation is modulated by the pleotropic regulator CcpA, independent of selection pressure strength”:
Positions count from the first letter of the chain named. The exact form of at least one protein or probe is not confirmed. For part of these data: A weaker result is weaker than the reference pair of the same experiment. At least one verdict rests on a figure or table, not on a statement of the authors. Protein sequences can lack the tags named with them.

Tests used:
[1] = molecular target: T1, CcpA-Ile19 (evolved, 445C1) M19I (Lactococcus lactis MG1363 (evolved strain 445C1)) (UniProt A2RJC5); assay: EMSA; details: 100-800 nM CcpA, 4 nM DNA, EMSA: 20 mM Tris-HCl pH 8, 100 mM KCl, 10 mM MgCl2, 1 mM EDTA, 1 mM DTT, 5% glycerol, 40 ug/ml BSA, 4 nM Cy3-DNA, 30 C 20 min, 7.5% native PAGE in TBE, recombinant protein, protein details: N-terminal 6xHis (pQE30), label: 5'-Cy3 on (+) strand
T1 sequence (looked up, limits assumed): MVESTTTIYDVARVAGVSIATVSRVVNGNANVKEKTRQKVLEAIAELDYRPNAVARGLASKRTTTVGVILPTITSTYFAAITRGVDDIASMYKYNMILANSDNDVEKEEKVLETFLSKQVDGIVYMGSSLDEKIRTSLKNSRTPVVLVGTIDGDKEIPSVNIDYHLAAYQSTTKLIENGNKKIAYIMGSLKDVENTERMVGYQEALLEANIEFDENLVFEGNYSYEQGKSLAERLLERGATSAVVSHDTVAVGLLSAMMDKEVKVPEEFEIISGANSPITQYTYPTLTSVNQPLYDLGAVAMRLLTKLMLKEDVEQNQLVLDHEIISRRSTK

[2] = molecular target: T2, CcpA-Met19 (wild type, Genr0) (Lactococcus lactis MG1363 (strain Genr0)) (UniProt A2RJC5); assay: EMSA; details: 100-800 nM CcpA, 4 nM DNA, slightly lower affinity than Ile19; EMSA: 20 mM Tris-HCl pH 8, 100 mM KCl, 10 mM MgCl2, 1 mM EDTA, 1 mM DTT, 5% glycerol, 40 ug/ml BSA, 4 nM Cy3-DNA, 30 C 20 min; 7.5% native PAGE in TBE; recombinant protein; protein details: N-terminal 6xHis (pQE30); label: 5'-Cy3 on (+) strand
T2 sequence (looked up, limits assumed): T1 sequence (looked up, limits assumed) with I19M

Q: Does “AAAAAATAGATAACGCTTGCATTATGAA (double strand) [ptcB cre (F1/R1)]” bind ([1]; affinity increased vs Met19, most pronounced)?
A: Result: binds

Q: Does “ACCACAATGTAAAAGCTTACAATTGCT (double strand) [mtlD cre]” bind [2]?
A: Result: binds more weakly

Q: Does “TTCTTACTGTTAGCGCTTTCAGTACG (double strand) [syn cre (perfect cre site)]” bind ([1]; affinity increased vs Met19)?
A: Result: binds
